Reference: publication PMC3960060
These are yes or no findings as the source states them, for the method shown. Some entries that bind do so weakly or less than the wild type.

Target: T1, recombinant biotinylated HEG1 cytoplasmic tail protein (UniProt Q9ULI3)
T1 sequence (chain, biotin): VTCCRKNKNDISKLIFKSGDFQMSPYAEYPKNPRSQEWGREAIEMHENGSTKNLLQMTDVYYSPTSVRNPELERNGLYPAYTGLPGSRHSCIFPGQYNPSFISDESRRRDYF
Assay: ELISA; capture ELISA: plates coated with 10 ug/mL neutravidin, blocked with 1% BSA, loaded with 2 ug/mL biotinylated HEG1 tail protein; incubated with HEK293A lysates adjusted to equal FLAG-CCM1 levels; washed with 0.2% Triton X-100 in PBS; detected with anti-FLAG M2 and HRP-conjugated anti-mouse IgG, chemiluminescence; only the target purified

- binding: binds
Substance: human full-length FLAG-tagged CCM1 (from UniProt O00522-1 1-736)
